# Results published in patent publication US11377466B2, “Analogs of the natural product icariin” (Whitehead Institute for Biomedical Research, priority 2018, dated 2022).
# For at least one compound, name, drawing or mass did not settle the structure.
# Biological target: T1, purified recombinant human PDE5 (Homo sapiens, UniProt O76074)
# T1 construct: purchased Abcam AB125581
# Test: In vitro PDE5 inhibition assay (GMP production from cGMP, LC-MS)
# Format: biochemical
# Settings: for fold increase in potency compared to the unglycosylated analog: 3 compared to 6, 5 compared to 8; for Field improved potency: fold change in IC50 compared to icariin
# Method: To evaluate the nine icariin analogs, the IC50 of each analog, icariin, and sildenafil were measured in an in vitro PDE5 inhibition assay, which measures GMP production from cGMP by purified recombinant human PDE5. Table 1 summarizes the IC50 values obtained for the nine icariin analogs tested. Fold improved potency in Table 1 refers to fold change in IC50 compared to icariin.
# […]. […] PDE5 (purified recombinant human PDE5 purchased from Abcam, Product No. AB125581) was added to start the reaction. The reaction was at room temperature until approximately 10-15% of cGMP in uninhibited control reactions was consumed. Keeping cGMP concentration low and staying within a linear reaction ensured that the reaction remained within Michaelis-Menten model assumptions and that the IC50 could be approximated to the inhibition constant or Ki (as substrate concentration decreases, IC50 value approaches Ki value). The reaction was stopped with the addition of 0.1 M hydrochloric acid. The amount of GMP produced was measured by LC-MS.
SMILES,fold increase in potency compared to the unglycosylated analog,Field improved potency
COc1ccc(-c2oc3c(CC=C(C)C)c(O[C@@H]4O[C@H](CO)[C@@H](O)[C@H](O)[C@H]4O)cc(O)c3c(=O)c2OCCO)cc1 [Compound 3],5,72
COc1ccc(-c2oc3c(CC=C(C)C)c(O)cc(O)c3c(=O)c2OCC(C)O)cc1 (stereo not drawn) [Compound 8],–,4
COc1ccc(-c2oc3c(CC=C(C)C)c(O)cc(O)c3c(=O)c2OCCO)cc1 [Compound 6],–,15
COc1ccc(-c2oc3c(CC=C(C)C)c(O[C@@H]4O[C@H](CO)[C@@H](O)[C@H](O)[C@H]4O)cc(O)c3c(=O)c2OCC(C)O)cc1 (stereo partly drawn) [Compound 5],3,12
